Consider two molecules from patent publication US20230190810A1 (FRED HUTCHINSON CANCER CENTER, published 2023).

No constants are given. Whether binding was seen depends on the method and setting. A result given as binding can be weak or reduced; the word gives no strength.

The target of this test is NHP CD33. In words: flow cytometry, murine antibody; ML-1 CD33 KO cells expressing non-human primate CD33, compared with ML-1 CD33 KO cells. A general note: A flow cytometer gives signals particle by particle.

B1: 5D12 antibody (murine CD33^V-set antibody) (antibody, V domains shown)
VH: QVQLQQSGAEVVKPGASVKISCRASGYAFSNYWMNWVKQRPGKGLEWIGQIYPGNFNTDYNGQFKGKATLTVDKSSNTAYMQLSSLTSEDSAVYFCARFFDFGAYFTLDYWGQGTSVTVSS
VL: DIKMTQSPSSIYASLGERVTINCKASQDIKSYLSWYQQKPWKSPKTLIYYATTLADGVPSRFSGSGSGQDYSLTISSLESDDTATYYCLHHGESPWTFGEGTKLEIK
notes: Murine hybridoma antibody
B1: the binding entry was “binds”.

B2: 8F5 antibody (murine CD33^V-set antibody) (antibody, V domains shown)
VH: EVKLVESGGGLVQPGGSLKLSCAASGFTFSDFYMYWVRQTPEKRLEWVAFISNAGVTTYYPDTVEGRFTISRDNAKNTLYLQMSRLMSEDTAMYYCTKSDYDGAWFPYWGQGTLVTVS
VL: DIVMSQSPSSLPVSVGEKVTLSCKSSQSLLYSRNQYNFLAWYQQRPGQSPKLLIYWASTRESGVPDRFTGSGSGTDFTLTISSVKAEDLAVYYCQQYYSYPYTFGGGTKLEIK
notes: Murine hybridoma antibody
For the molecule B2, the binding entry was “binds”.
